Laboratory results taken from publication PMC10643120 (Nature structural & molecular biology, 2023).
No constants are given. Whether binding was seen depends on the method and setting. In cells and extracts the contact can be indirect. Here binding means that the protein was enriched with, or labelled near, the bait; the list need not be complete. For some of these results: Tags and fused reporters may be left off the sequences shown.

Protein sequences, listed by entry. Tags and fused reporters are not part of them. Lines headed by an entry give the natural chain unless they say otherwise; changes in a name come on top.
UniProt F8SJN3: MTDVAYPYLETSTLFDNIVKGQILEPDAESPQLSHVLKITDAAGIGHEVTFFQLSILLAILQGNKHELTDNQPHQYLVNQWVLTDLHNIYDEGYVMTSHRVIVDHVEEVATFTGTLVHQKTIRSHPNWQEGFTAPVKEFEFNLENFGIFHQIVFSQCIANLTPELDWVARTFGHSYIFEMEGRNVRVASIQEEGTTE
UniProt F8SJP5: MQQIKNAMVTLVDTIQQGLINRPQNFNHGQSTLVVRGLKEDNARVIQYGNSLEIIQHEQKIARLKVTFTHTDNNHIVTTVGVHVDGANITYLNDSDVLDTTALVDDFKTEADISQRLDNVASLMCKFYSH
UniProt F8SJU4: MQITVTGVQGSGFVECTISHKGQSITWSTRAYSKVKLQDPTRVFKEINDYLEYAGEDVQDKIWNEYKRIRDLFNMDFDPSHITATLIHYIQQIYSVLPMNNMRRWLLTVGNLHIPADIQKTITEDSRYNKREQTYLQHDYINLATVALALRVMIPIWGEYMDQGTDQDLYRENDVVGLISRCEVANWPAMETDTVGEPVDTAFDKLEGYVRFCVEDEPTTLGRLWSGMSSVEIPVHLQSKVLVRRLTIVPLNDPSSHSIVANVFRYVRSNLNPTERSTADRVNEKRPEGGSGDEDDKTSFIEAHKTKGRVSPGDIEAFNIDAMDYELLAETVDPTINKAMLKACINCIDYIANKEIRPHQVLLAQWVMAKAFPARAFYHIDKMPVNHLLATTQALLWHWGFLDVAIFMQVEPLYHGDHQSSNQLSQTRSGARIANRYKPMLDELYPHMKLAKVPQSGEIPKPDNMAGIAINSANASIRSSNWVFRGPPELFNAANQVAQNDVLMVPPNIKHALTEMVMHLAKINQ
UniProt F8SJU5: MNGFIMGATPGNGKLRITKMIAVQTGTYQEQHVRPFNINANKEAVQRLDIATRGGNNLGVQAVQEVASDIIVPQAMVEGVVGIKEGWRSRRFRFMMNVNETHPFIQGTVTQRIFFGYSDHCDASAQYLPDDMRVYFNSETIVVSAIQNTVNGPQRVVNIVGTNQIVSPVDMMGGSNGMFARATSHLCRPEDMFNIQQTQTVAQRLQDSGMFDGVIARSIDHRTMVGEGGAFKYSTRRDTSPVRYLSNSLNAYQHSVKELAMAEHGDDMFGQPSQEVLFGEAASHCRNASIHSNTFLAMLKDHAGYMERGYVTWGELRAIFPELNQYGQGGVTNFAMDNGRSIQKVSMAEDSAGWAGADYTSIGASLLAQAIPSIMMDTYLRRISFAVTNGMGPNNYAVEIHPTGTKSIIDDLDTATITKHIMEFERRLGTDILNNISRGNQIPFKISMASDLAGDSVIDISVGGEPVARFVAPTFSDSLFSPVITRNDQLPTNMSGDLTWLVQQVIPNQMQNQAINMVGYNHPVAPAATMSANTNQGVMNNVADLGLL
UniProt F8SJU6: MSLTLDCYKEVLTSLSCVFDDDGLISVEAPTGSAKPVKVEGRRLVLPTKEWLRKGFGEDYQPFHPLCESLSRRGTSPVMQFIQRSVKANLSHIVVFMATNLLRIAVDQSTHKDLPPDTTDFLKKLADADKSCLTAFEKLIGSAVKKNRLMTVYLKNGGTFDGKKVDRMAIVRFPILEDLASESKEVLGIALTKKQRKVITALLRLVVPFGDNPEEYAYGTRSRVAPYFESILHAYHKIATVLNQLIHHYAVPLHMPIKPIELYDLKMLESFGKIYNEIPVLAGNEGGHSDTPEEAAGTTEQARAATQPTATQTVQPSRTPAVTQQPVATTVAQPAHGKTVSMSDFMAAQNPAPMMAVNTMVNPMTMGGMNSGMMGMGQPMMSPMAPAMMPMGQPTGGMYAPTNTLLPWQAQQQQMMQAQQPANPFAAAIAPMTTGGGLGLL
UniProt F8SJV7: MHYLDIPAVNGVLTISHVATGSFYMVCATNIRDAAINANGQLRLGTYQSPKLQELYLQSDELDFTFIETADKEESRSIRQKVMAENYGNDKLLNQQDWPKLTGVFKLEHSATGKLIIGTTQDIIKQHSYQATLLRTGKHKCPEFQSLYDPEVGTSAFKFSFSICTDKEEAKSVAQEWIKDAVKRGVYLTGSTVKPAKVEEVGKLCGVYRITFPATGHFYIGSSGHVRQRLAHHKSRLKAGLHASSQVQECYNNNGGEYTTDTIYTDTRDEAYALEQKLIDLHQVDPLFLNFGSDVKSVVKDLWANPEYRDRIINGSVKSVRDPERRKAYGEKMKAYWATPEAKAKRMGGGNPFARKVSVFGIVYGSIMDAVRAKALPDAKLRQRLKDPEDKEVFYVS
UniProt F8SK05: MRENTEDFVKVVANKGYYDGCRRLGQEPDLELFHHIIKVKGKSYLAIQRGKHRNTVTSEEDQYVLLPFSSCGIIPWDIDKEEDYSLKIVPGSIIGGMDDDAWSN
UniProt F8SK07: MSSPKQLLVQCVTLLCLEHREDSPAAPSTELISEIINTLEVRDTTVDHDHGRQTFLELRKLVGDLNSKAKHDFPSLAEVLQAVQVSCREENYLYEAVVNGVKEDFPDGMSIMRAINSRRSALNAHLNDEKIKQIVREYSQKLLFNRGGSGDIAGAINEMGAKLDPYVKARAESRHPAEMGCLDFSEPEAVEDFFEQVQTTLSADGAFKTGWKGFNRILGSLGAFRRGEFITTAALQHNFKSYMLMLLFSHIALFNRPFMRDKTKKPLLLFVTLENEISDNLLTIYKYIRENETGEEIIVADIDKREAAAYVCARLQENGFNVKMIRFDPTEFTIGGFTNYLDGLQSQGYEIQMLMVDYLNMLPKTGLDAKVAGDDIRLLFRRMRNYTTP
UniProt F8SK17: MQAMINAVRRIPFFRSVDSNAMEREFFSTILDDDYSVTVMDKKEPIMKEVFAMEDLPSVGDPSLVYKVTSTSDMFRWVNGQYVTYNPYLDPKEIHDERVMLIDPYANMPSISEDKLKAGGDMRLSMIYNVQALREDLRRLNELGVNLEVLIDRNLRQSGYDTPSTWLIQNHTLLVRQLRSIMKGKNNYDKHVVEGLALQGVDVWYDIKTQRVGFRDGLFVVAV
UniProt F8SK39: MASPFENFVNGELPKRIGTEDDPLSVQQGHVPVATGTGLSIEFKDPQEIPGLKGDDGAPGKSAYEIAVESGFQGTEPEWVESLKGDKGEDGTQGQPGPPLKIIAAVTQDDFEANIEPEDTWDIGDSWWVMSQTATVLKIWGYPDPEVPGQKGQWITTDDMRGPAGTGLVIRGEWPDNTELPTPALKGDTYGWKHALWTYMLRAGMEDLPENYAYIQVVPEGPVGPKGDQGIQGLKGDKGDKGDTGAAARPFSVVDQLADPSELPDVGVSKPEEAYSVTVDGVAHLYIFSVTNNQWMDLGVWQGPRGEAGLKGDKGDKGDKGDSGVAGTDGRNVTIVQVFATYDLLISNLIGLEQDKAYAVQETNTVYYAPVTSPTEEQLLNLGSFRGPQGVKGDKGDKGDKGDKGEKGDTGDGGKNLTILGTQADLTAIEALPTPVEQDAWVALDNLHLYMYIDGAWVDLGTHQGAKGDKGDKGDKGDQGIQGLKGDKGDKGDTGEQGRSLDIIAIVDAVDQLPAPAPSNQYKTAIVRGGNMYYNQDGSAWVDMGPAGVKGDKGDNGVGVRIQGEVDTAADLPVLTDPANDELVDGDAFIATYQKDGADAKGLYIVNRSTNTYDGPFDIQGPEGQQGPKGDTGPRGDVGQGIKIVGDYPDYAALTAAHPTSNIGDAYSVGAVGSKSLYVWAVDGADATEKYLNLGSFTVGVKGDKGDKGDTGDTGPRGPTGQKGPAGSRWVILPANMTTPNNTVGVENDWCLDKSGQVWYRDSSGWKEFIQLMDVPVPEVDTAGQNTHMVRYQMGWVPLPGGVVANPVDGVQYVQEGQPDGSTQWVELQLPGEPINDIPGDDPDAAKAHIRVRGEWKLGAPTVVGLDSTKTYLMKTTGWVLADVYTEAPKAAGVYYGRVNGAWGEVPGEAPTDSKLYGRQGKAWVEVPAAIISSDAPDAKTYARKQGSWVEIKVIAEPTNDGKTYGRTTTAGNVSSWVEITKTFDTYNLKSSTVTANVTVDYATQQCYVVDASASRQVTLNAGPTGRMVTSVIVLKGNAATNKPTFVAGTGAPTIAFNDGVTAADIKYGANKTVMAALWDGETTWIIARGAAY
UniProt F8SJ53: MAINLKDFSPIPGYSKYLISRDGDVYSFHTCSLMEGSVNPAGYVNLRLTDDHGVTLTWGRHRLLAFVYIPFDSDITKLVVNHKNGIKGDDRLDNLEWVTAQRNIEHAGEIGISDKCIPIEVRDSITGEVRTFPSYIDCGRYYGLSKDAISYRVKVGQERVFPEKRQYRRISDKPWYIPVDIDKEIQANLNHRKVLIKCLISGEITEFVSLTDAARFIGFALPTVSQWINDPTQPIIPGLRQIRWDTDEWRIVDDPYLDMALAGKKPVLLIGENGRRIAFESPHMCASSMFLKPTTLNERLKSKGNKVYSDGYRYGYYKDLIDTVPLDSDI
UniProt F8SJ60: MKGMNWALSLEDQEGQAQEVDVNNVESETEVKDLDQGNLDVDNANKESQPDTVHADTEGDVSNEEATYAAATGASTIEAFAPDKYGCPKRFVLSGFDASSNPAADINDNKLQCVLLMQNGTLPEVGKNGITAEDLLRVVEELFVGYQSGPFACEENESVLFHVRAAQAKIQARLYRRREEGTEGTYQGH
UniProt F8SJ76: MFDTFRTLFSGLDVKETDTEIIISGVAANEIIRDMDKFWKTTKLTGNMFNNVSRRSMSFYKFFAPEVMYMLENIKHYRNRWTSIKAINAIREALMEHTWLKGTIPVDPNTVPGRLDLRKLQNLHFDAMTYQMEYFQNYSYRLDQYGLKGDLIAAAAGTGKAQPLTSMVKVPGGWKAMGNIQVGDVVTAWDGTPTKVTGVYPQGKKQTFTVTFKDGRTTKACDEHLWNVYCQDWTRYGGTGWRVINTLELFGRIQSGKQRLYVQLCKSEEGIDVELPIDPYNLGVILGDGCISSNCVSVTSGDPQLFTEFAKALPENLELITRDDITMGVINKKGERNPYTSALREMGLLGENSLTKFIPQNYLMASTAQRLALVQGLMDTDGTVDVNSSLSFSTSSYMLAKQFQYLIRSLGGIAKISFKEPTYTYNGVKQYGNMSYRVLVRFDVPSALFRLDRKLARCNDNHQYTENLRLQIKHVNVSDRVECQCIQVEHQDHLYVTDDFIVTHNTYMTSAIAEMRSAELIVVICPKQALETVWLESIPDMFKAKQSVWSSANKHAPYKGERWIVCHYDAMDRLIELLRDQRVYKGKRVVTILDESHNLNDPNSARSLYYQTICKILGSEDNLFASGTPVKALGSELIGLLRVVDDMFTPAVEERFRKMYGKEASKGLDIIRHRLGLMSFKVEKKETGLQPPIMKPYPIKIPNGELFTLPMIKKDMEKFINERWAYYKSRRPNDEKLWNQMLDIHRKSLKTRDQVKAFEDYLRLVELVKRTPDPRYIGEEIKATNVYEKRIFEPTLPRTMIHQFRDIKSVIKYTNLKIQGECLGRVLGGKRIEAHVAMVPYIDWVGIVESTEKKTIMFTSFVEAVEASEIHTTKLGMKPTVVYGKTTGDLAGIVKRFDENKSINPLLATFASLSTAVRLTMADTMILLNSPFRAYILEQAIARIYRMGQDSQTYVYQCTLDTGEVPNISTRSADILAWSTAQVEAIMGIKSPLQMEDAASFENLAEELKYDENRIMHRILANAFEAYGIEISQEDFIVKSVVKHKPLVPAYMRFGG
UniProt F8SJ82: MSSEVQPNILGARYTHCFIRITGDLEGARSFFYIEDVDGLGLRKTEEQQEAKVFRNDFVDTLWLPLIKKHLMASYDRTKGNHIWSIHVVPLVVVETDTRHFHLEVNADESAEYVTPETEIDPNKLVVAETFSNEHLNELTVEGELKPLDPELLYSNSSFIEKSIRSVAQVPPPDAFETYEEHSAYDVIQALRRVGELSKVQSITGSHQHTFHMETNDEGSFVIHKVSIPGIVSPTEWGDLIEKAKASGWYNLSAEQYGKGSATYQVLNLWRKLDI
UniProt F8SJA8: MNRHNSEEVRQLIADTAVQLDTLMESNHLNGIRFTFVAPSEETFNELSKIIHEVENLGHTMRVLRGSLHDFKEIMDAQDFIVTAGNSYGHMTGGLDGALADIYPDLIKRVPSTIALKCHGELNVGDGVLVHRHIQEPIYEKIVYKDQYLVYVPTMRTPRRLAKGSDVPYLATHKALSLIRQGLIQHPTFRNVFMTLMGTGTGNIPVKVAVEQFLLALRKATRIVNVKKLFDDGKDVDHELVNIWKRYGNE
UniProt F8SJH1: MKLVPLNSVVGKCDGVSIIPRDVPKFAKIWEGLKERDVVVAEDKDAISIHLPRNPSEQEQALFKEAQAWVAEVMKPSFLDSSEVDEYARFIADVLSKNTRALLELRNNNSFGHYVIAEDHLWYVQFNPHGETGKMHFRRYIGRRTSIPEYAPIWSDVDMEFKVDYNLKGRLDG
UniProt F8SJK7: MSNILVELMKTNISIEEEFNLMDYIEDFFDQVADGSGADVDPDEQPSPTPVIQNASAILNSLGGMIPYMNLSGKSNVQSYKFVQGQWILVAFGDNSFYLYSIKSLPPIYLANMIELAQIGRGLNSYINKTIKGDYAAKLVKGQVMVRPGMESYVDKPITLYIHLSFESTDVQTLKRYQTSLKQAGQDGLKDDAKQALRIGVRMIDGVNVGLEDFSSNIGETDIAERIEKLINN

T1: miniTurboID-gp53 (ΦPA3 ChmA fused to miniTurboID) (Pseudomonas phage ΦPA3) (UniProt F8SJT5)
T1 sequence: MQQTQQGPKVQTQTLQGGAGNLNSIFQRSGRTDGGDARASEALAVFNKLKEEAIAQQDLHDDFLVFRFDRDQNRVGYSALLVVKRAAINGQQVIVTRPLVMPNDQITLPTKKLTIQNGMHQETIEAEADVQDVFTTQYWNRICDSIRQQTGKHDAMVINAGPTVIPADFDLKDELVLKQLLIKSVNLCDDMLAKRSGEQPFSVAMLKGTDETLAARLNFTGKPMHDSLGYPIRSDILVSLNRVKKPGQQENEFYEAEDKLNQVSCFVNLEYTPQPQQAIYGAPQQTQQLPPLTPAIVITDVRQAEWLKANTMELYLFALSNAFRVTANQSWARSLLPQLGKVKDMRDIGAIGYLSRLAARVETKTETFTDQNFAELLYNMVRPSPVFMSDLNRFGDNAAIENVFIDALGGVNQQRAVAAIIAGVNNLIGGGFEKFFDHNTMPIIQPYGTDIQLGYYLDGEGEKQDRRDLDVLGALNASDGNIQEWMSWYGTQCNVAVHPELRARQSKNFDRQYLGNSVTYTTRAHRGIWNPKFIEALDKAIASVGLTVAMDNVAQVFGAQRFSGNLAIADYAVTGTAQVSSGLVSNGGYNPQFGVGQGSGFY

T2: GFP-tagged ΦPA3 ChmA (gp53) (Pseudomonas phage ΦPA3) (UniProt F8SJT5)
T2 sequence: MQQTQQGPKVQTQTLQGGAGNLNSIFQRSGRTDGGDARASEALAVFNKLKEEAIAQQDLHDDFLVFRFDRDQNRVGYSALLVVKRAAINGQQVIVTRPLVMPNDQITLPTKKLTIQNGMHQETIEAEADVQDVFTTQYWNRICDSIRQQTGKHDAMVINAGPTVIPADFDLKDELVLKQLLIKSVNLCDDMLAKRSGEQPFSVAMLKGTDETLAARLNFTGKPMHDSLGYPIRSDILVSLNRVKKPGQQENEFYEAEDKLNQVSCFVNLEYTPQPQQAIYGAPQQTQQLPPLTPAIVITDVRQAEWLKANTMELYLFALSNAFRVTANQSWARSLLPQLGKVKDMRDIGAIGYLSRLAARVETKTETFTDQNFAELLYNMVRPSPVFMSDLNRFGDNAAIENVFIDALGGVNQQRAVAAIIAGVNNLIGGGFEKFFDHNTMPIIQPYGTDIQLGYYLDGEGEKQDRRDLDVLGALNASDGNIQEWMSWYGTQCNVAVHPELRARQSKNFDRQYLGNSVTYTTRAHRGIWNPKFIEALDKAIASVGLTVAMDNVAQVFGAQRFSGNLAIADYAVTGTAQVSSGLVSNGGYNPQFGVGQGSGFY

B1: ΦPA3 ChmA (gp53), made by the phage (protein, UniProt F8SJT5 1-602)
chain: MQQTQQGPKVQTQTLQGGAGNLNSIFQRSGRTDGGDARASEALAVFNKLKEEAIAQQDLHDDFLVFRFDRDQNRVGYSALLVVKRAAINGQQVIVTRPLVMPNDQITLPTKKLTIQNGMHQETIEAEADVQDVFTTQYWNRICDSIRQQTGKHDAMVINAGPTVIPADFDLKDELVLKQLLIKSVNLCDDMLAKRSGEQPFSVAMLKGTDETLAARLNFTGKPMHDSLGYPIRSDILVSLNRVKKPGQQENEFYEAEDKLNQVSCFVNLEYTPQPQQAIYGAPQQTQQLPPLTPAIVITDVRQAEWLKANTMELYLFALSNAFRVTANQSWARSLLPQLGKVKDMRDIGAIGYLSRLAARVETKTETFTDQNFAELLYNMVRPSPVFMSDLNRFGDNAAIENVFIDALGGVNQQRAVAAIIAGVNNLIGGGFEKFFDHNTMPIIQPYGTDIQLGYYLDGEGEKQDRRDLDVLGALNASDGNIQEWMSWYGTQCNVAVHPELRARQSKNFDRQYLGNSVTYTTRAHRGIWNPKFIEALDKAIASVGLTVAMDNVAQVFGAQRFSGNLAIADYAVTGTAQVSSGLVSNGGYNPQFGVGQGSGFY

How the values were obtained:
[1] = molecular target: T1, miniTurboID-gp53 (ΦPA3 ChmA fused to miniTurboID) (Pseudomonas phage ΦPA3); assay: proximity labelling; miniTurboID fused to the bait, expressed in P. aeruginosa with 500 μM biotin, cells infected with ΦPA3 (MOI 3), collected 45 min post infection; biotinylated peptides captured on NeutrAvidin beads, LC-MS/MS; normalised to a miniTurboID-GFP control
[2] = molecular target: gp175-miniTurboID (ΦPA3 RecA fused to miniTurboID) (Pseudomonas phage ΦPA3) (UniProt F8SK48); assay: as above
[3] = molecular target: ΦPA3 gp2 with a C-terminal GFP tag (Pseudomonas phage ΦPA3) (UniProt F8SJN3); assay: affinity purification with mass spectrometry; GFP-Trap magnetic agarose pull-down from lysate of ΦPA3-infected P. aeruginosa (45 min post infection), 150 mM NaCl, 0.05% NP-40 substitute washes; mass spectrometry of the full eluate
[4] = molecular target: T2, GFP-tagged ΦPA3 ChmA (gp53) (Pseudomonas phage ΦPA3); assay: as above
[5] = molecular target: ΦPA3 gp2 with an N-terminal GFP tag (Pseudomonas phage ΦPA3); assay: as above
[6] = molecular target: ΦPA3 gp2 with a C-terminal GFP tag (Pseudomonas phage ΦPA3) (UniProt F8SJN3); assay: affinity purification with mass spectrometry; GFP-Trap magnetic agarose pull-down from lysate of ΦPA3-infected P. aeruginosa (45 min post infection); the ~70 kDa doublet cut from a Coomassie-stained gel, tryptic mass spectrometry

Row | Molecule | binding [1] | binding [2] | further results
1 | ΦPA3 gp2 (ChmB), made by the phage (from UniProt F8SJN3) | binds |  | 
2 | ΦPA3 gp12 (from UniProt F8SJP3) | binds | binds | 
3 | ΦPA3 gp14 (from UniProt F8SJP5) | binds |  | 
4 | ΦPA3 gp18 (from UniProt F8SJP9) | binds | binds | 
5 | ΦPA3 gp49 (from UniProt F8SJT1) |  | binds | 
6 | ΦPA3 gp52 (from UniProt F8SJT4) | binds |  | 
7 | ΦPA3 gp61 (from UniProt F8SJU3) | binds | binds | 
8 | ΦPA3 gp62, made by the phage (from UniProt F8SJU4) | binds | binds | 
9 | ΦPA3 gp63 (from UniProt F8SJU5) | binds | binds | binding [3]: binds
10 | ΦPA3 gp64 (from UniProt F8SJU6) | binds | binds | binding [3]: binds
11 | ΦPA3 gp78 (from UniProt F8SJV7) | binds | binds | 
12 | ΦPA3 gp85 (from UniProt F8SJW4) | binds |  | 
13 | ΦPA3 gp106 (from UniProt F8SJY2) | binds |  | 
14 | ΦPA3 gp108 (from UniProt F8SJY4) |  | binds | 
15 | ΦPA3 gp119 (Pseudomonas phage ΦPA3) | binds |  | 
16 | ΦPA3 gp131 (from UniProt F8SK05) | binds | binds | 
17 | ΦPA3 gp134 (from UniProt F8SK07) | binds | binds | 
18 | ΦPA3 gp138 (Pseudomonas phage ΦPA3) | binds |  | binding [4]: binds
19 | ΦPA3 gp144 (from UniProt F8SK17) |  | binds | 
20 | ΦPA3 gp148 (portal protein), made by the phage (from UniProt F8SK21) | binds |  | binding [3]: binds
21 | ΦPA3 gp164 (Pseudomonas phage ΦPA3) | binds |  | 
22 | ΦPA3 gp166 (from UniProt F8SK39) | binds | binds | 

Row | Molecule | binding [1] | binding [2] | further results
23 | ΦPA3 gp200 (from UniProt F8SJ43) | binds | binds | 
24 | ΦPA3 gp202 (from UniProt F8SJ45) | binds |  | 
25 | ΦPA3 gp210 (from UniProt F8SJ53) |  | binds | 
26 | ΦPA3 gp217 (from UniProt F8SJ60) | binds | binds | 
27 | ΦPA3 gp219 (from UniProt F8SJ62) | binds |  | 
28 | ΦPA3 gp222 (from UniProt F8SJ65) | binds | binds | 
29 | ΦPA3 gp233 (from UniProt F8SJ76) | binds | binds | 
30 | ΦPA3 gp239 (from UniProt F8SJ82) | binds | binds | 
31 | ΦPA3 gp247 (from UniProt F8SJM1) | binds | binds | 
32 | ΦPA3 gp253 (from UniProt F8SJ94) |  | binds | 
33 | ΦPA3 gp257 (from UniProt F8SJM3) | binds | binds | 
34 | ΦPA3 gp271 (from UniProt F8SJA8) | binds | binds | 
35 | ΦPA3 gp308 (from UniProt F8SJE4) | binds | binds | 
36 | ΦPA3 gp313 (from UniProt F8SJE9) |  | binds | 
37 | ΦPA3 gp335 (from UniProt F8SJH1) | binds | binds | 
38 | ΦPA3 gp350 (from UniProt F8SJI4) |  | binds | 
39 | ΦPA3 gp355 (from UniProt F8SJI8) | binds |  | 
40 | ΦPA3 gp358 (from UniProt F8SJJ0) | binds | binds | binding [4]: binds; binding [3]: binds
41 | ΦPA3 gp370 (from UniProt F8SJK2) | binds |  | 
42 | ΦPA3 gp375 (from UniProt F8SJK7) |  | binds | 
43 | ΦPA3 gp378 (from UniProt F8SJL0) | binds |  | 
44 | B1 |  |  | binding [3]: binds; binding [5]: binds; binding [6]: binds
